According to PubChem BioAssay AID504467 (National Center for Advancing Translational Sciences (NCATS), 2011):
The campaign covered roughly 330,000 compounds. About 7,700 (2.3%) were called active. Inconclusive means that the source gave no clear call. Such entries were picked first, then a sample of the others. The call rests on the fitted dose curve; in most records, active means well fitted inhibition curve with a large enough effect; inconclusive means small, poorly fitted or top-dose-only effect, or effect the other way; inactive means flat fitted curve, though single readings scatter. Potencies of inconclusive entries are doubtful fits and often do not repeat.

Experiment: qHTS screen for small molecules that inhibit ELG1-dependent DNA repair in human embryonic kidney (HEK293T) cells expressing luciferase-tagged ELG1; further: nearly all actives have a fitted effect of over 55% in size
Details: HEK293T ELG1-luciferase reporter, luminescence, 16 h, DNA damage induced by 5-fluorouridine; series mostly up to 46.1 µM
How it was run: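 5-Fluorouridine DNA damage + compound/DMSO, 2,000 cells/well, 16 h, 37 °C/5% CO2. ONE-Glo, 30 min RT, luminescence. Readout = decrease in reporter signal.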
Potency means the concentration at half of the fitted maximal effect.

| SMILES | Potency |
| --- | --- |
| CC1(C)SCC(C(=O)O)NC1=O (stereo not given) | inactive |
| Cc1ccc(S(=O)(=O)N(CC(=O)c2ccc(Cl)cc2)C(=O)N2CCN(C)CC2)cc1 | inactive |
| COC(=O)COc1ccc(/C=N/NC(=O)c2ccc(N(Cc3ccccc3)S(C)(=O)=O)cc2)cc1 | inactive |
| O=C(COc1ccccc1F)Nc1nnc(C2CCCC2)s1 | inconclusive: 13 µM [activator, partial curve] |
| CC(=O)c1cc(-c2ccccc2)[nH]c1N1CCCC1 | inconclusive: 29.1 µM [activator, single point] |
| CCCCCCCCCn1ccc(=N)cc1 | active: 0.411 µM |
| Cc1nc2c(c(=O)n1CCC1=CCCCC1)c1nc3ccccc3nc1n2/N=C/c1ccco1 | active: 5.17 µM |
| Cc1ccc(OCC(=O)Nc2cccc(S(=O)(=O)N3CCCCCC3)c2)c([N+](=O)[O-])n1 | inconclusive: 20.6 µM [inhibitor, single point] |
| Cc1cccc(-c2oc3ccc(-c4ccc5c(c4)OCO5)cc3c2C#Cc2cncn2C)c1 | inactive |
| CCN1CCN(Cc2nc3c(c(=O)[nH]c(=O)n3C)n2Cc2ccccc2Cl)CC1 | inactive |
| Cc1ccc(-c2nn3c(C)nnc3s2)cc1NC(=O)c1cccnc1 | inconclusive: 29.1 µM [activator, single point] |
| CCOC(=O)C1=C(COC(=O)c2cccc(N(C)C)c2)NC(=O)NC1C (stereo not given) | inconclusive: 13 µM [activator, partial curve] |
| CCn1cc(Cl)c(C(=O)Nc2nc3ccccc3n2CCN2CCCCC2)n1 | inactive |
| O=S(=O)(c1cccs1)N1CCN(CC(O)COc2cc(Cl)ccc2Cl)CC1 (stereo not given) | active: 8.2 µM |
| COc1ccc(/C=C2/CCc3ccccc3C2=O)cc1OC | inconclusive: 10.3 µM [activator, partial curve] |
| Cn1cc([N+](=O)[O-])c(C(=O)Nc2ccn(Cc3c(F)c(F)cc(F)c3F)n2)n1 | inconclusive: 1.46 µM [inhibitor, full curve] |
| COc1ccc(Nc2oc(-c3ccccc3)nc2C#N)cc1 | inconclusive: 2.31 µM [activator, partial curve] |
| CCN(CC)S(=O)(=O)c1ccc(N2CCOCC2)c(NC(=O)c2sccc2C)c1 | active: 18.3 µM |
| Cc1cccc(N=C2NC(=O)C(CO)(CO)S2)c1 | inactive |
| CCCCCCCCCOC(=O)C(CC(=O)O)N1CCOCC1 (stereo not given) | inconclusive: 25.9 µM [activator, single point] |
| CCOC(=O)c1nn(-c2ccccc2Cl)c(=O)cc1OCC(=O)Nc1cccc(OC)c1 | inactive |
| CCOc1ccc(CSC2=NCCN2)cc1Cl | inactive |
| Cc1cccc(Oc2ccc(S(=O)(=O)N3CCCCC3)cc2N)c1 | inconclusive: 29.1 µM [inhibitor, single point] |
| CCC(=O)N(CCc1ccccc1C)Cc1cc2ccc(C)cc2[nH]c1=O | inconclusive: 16.4 µM [inhibitor, single point] |
| CC1CCN(C(=O)c2[nH]cnc2C(=O)NCC(=O)OCc2ccccc2)CC1 | inconclusive: 29.1 µM [activator, single point] |

| SMILES | Potency |
| --- | --- |
| CCCc1cc(=O)[nH]c(SCC(=O)NC2(C#N)CCCCC2)n1 | inactive |
| C=C(C)C(=O)OCC(=O)NCc1ccccc1 | inactive |
| Cc1cccc(-n2cnc(C(=O)N/N=C/c3ccccc3)c2)n1 | inconclusive: 14.6 µM [activator, partial curve, poor fit] |
| COc1ccccc1NS(=O)(=O)c1cc(NC(=O)c2cc3ccccc3oc2=O)ccc1C | inconclusive: 8.2 µM [inhibitor, partial curve] |
| CCOc1ccc(S(=O)(=O)N2CCC(C(=O)NCCc3ccccc3)CC2)cc1 | inactive |
| COc1ccc(S(=O)(=O)Nc2c(C(=O)O)[nH]c3ccccc23)cc1OC | inconclusive: 32.6 µM [activator, partial curve, poor fit] |
| Cc1ccc2cc(C(c3nnnn3C3CCCC3)N(Cc3cccnc3)Cc3ccco3)c(=O)[nH]c2c1 (stereo not given) | inconclusive: 29.1 µM [inhibitor, single point] |
| CCOC(=O)c1sc2nc(CC(=O)OC)nc(N3CCN(c4ccccn4)CC3)c2c1C | active: 9.2 µM |
| Cc1onc(C(=O)/C=C/N(C)C)c1C(=O)Nc1nccs1 | inconclusive: 2.82 µM [activator, single point] |
| O=C1c2ccccc2C(=O)N1CCSc1ncn[nH]1 | inconclusive: 6.51 µM [activator, partial curve, poor fit] |
| COc1ccc(-c2nnc(-c3ccc(F)cc3)o2)cc1 | inconclusive: 3.66 µM [activator, full curve] |
| CCOC(=O)c1cnc(-n2nc(C)cc2C)nc1Nc1ccccc1OC | inactive |
| Cc1c(O[C@@H]2O[C@H](CO)[C@@H](O)[C@H](O)[C@H]2O)ccc2c1oc(=O)c1ccccc12 | inconclusive: 23.1 µM [activator, single point] |
| CCOC(=O)c1cnc(SC)nc1Nc1cccc(F)c1 | inactive |
| COc1ccc2oc(C(=O)Nc3nc4ccccc4[nH]3)c(C)c2c1 | inconclusive: 3.26 µM [activator, partial curve, poor fit] |
| O=C1NC(CCc2ccccc2)C(=O)N1Cc1ccc(Br)cc1 (stereo not given) | inactive |
| CC1CCN(S(=O)(=O)c2ccc(C(=O)N3CCOCC3)cc2)CC1 | inactive |
| COc1ccc(OCC(=O)NC2CC(C)(C)NC(C)(C)C2)cc1 | inconclusive: 18.4 µM [activator, single point] |
| CCOC(=O)c1c[nH]n(-c2ccc(C)cc2)c1=O | inconclusive: 18.3 µM [activator, partial curve] |
| CN1C(=O)C(C)(C)c2cc(S(=O)(=O)N3CCC(C(=O)NCc4ccccc4Cl)CC3)ccc21 | inactive |
| Cc1cc(N2CCN(c3ccc(C(F)(F)F)cc3[N+](=O)[O-])CC2)c2ccccc2n1 | inconclusive: 16.4 µM [inhibitor, partial curve] |
| COC(=O)c1c(NC(=O)Cn2nc(C(F)F)cc2C(F)F)sc(C)c1C | inconclusive: 29.1 µM [inhibitor, partial curve, poor fit] |
| O=C(NCCCn1ccnc1)/C(=C\c1ccc(Br)cc1)NC(=O)c1ccccc1F | inactive |
| Cc1ccc(C)c(NC(=O)Nc2ccc3c(c2)OCO3)c1 | inconclusive: 18.3 µM [activator, partial curve] |
| Cc1nc2cc(-c3ccccc3)nn2c(C)c1CCC(=O)NC(C)c1ccc2c(c1)OCCO2 (stereo not given) | inactive |

No new results follow: 5 of the compounds above.

| SMILES | Potency |
| --- | --- |
| Cc1cccc(N=C2NC(=O)C(CO)(CO)S2)c1 | inactive |
| CCCCCCCCCOC(=O)C(CC(=O)O)N1CCOCC1 (stereo not given) | inconclusive: 25.9 µM [activator, single point] |
| CCOC(=O)c1nn(-c2ccccc2Cl)c(=O)cc1OCC(=O)Nc1cccc(OC)c1 | inactive |
| CCOc1ccc(CSC2=NCCN2)cc1Cl | inactive |
| Cc1cccc(Oc2ccc(S(=O)(=O)N3CCCCC3)cc2N)c1 | inconclusive: 29.1 µM [inhibitor, single point] |

(continued)

| SMILES | Potency |
| --- | --- |
| C/C(=N\Nc1cccc(Cl)c1)c1ccncc1 | inconclusive: 25.9 µM [activator, single point] |
| CSc1nc(Oc2ccc3ccccc3c2)c2sccc2n1 | inactive |
| Cc1c(NC(=O)c2cccc(NC(=O)Cc3ccccc3F)c2)c(=O)n(-c2ccccc2)n1C | inconclusive: 18.3 µM [inhibitor, partial curve] |
| Cn1ncc(N=Cc2ccccc2)c1C(=O)Nc1cccc(Cl)c1 | inconclusive: 32.6 µM [activator, partial curve, poor fit] |
| Cc1ccccc1-c1nnc(-c2ccc(Cl)cc2)o1 | inconclusive: 18.4 µM [activator, partial curve] |
| O=C(NCc1ccccn1)/C(=C/c1ccco1)NC(=O)c1ccccc1 | inconclusive: 20.6 µM [activator, partial curve, poor fit] |
| FC(F)(F)c1cccc(NC(=S)N2CCN(c3ccccc3)CC2)c1 | inconclusive: 29.1 µM [activator, partial curve, poor fit] |
| CC1CCC(C(C)C)C(OCC(O)C[N+]2(C)CCCCC2)C1 (stereo not given) | inactive |
| COc1cccc(C(C)NC(=O)Nc2ccccc2Cl)c1 (stereo not given) | inactive |
| N#C/C(=C/c1cccc([N+](=O)[O-])c1)C(=O)Nc1ccccc1O | inactive |
| CC(C)(C)SC(=O)C[C@@H]1NS(=O)(=O)OC2CCCCC21 (stereo not given in full) | inconclusive: 3.66 µM [activator, single point] |
| CN(/C=C/C(=O)C(F)(F)F)Cc1ccccc1 | inactive |
| CCCc1cc(C(=O)Nc2cccc(Cl)c2C)no1 | inconclusive: 16.4 µM [activator, partial curve] |
| O=S(=O)(NC1CCCCCC1)c1cccc(Cl)c1 | inactive |
| CC(C)(C)NC(=O)CCn1nc(-c2ccc(Cl)cc2)c2ccccc2c1=O | inconclusive: 11.6 µM [inhibitor, single point] |
| CC(=O)Nc1ccc(NC(=O)CSc2nc3ccccc3o2)cc1 | inconclusive: 13 µM [activator, partial curve] |
| CCC(CC)C(=O)Nc1nnc(-c2cccs2)s1 | inconclusive: 8.2 µM [activator, partial curve] |
| COCN(C#N)c1nc(N(C)C)nc(N(C)C)n1 | inactive |
| O=[N+]([O-])c1ccc(O)c(/C=N/Nc2nc3ccccc3[nH]2)c1 | inconclusive: 29.1 µM [activator, single point] |
| Cc1cc(C)c(S(=O)(=O)c2c(C)cccc2C)c(Cl)n1 | inactive |
| Cc1ccc(S(=O)(=O)c2cn(C)c3cc(N4CCOCC4)c(F)cc3c2=O)cc1 | inactive |
| O=C(c1ccc(Cl)c([N+](=O)[O-])c1)N1CCCc2ccccc21 | inconclusive: 23.1 µM [activator, partial curve] |
| Cc1cc(C)nc(-n2nc(C)cc2NC(=O)CN2CCCC(C)C2)n1 (stereo not given) | inactive |
| Cc1sc(NC(=O)Cc2ccc3c(c2)OCO3)nc1-c1ccc2c(c1)CCN2C(=O)c1ccc(F)cc1 | inconclusive: 2.59 µM [inhibitor, full curve] |
| COc1ccc(CCN2C(=O)C3C4C=CC(C3C2=O)C2C(=O)N(CCc3ccc(OC)c(OC)c3)C(=O)C42)cc1OC (stereo not given) | active: 3.26 µM |

Part of the list above, as tab-separated lines:
SMILES	Potency
Cc1cc(C)c(S(=O)(=O)c2c(C)cccc2C)c(Cl)n1	inactive
Cc1ccc(S(=O)(=O)c2cn(C)c3cc(N4CCOCC4)c(F)cc3c2=O)cc1	inactive
